One test concerns the target T1, ELMO2-Flag (UniProt Q96JJ3).
T1 sequence: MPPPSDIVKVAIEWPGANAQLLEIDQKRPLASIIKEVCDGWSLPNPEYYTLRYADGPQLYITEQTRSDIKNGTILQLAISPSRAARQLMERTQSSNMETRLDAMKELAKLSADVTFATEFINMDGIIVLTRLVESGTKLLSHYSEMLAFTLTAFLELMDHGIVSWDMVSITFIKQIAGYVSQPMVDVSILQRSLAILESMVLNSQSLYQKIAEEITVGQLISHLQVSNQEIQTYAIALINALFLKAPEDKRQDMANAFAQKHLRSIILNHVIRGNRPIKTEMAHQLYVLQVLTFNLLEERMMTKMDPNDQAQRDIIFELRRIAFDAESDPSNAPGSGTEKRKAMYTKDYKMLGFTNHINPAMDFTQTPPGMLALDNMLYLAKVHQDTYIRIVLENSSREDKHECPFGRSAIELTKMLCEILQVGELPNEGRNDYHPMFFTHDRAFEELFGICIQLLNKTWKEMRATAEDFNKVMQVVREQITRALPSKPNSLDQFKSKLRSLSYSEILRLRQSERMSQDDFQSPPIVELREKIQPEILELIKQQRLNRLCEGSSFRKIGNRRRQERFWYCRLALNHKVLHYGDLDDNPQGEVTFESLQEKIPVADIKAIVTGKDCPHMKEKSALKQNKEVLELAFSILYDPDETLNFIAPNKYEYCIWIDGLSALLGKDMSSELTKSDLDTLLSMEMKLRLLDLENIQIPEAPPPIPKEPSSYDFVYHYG
The experiment in a line: co-IP; lysates of transfected PANC-1 cells (RIPA lysis buffer with PMSF) incubated overnight with monoclonal anti-Flag antibody, captured on protein A/G magnetic beads, eluted by boiling, blotted with anti-Gαi2 and anti-ELMO2; control rabbit IgG in parallel.

The chains behind the UniProt entries cited, without tags or fusion partners.
UniProt P04899: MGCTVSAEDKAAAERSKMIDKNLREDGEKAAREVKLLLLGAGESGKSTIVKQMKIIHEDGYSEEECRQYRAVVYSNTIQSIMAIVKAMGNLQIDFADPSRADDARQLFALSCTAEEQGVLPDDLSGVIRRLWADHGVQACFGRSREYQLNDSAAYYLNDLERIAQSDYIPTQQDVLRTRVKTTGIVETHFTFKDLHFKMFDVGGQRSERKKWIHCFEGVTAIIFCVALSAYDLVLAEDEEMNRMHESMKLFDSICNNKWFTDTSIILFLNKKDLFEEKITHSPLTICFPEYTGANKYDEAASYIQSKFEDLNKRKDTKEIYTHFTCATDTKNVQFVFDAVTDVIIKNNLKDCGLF

The target in a further test is Gαi2-Flag (UniProt P04899). Described as above.

No constants are given. Whether binding was seen depends on the method and setting. In cells and extracts the contact can be indirect. Some binding calls cover weakened binding; strength is not graded here. For some assays here: Where a sequence is shown, tags or fusion partners need not be part of it.

With “Gαi2 (endogenous) (from UniProt P04899 1-355)”, the binding result with ELMO2-Flag was “binds”.

B1: ELMO2 (endogenous) (protein, UniProt Q96JJ3 1-720)
chain: MPPPSDIVKVAIEWPGANAQLLEIDQKRPLASIIKEVCDGWSLPNPEYYTLRYADGPQLYITEQTRSDIKNGTILQLAISPSRAARQLMERTQSSNMETRLDAMKELAKLSADVTFATEFINMDGIIVLTRLVESGTKLLSHYSEMLAFTLTAFLELMDHGIVSWDMVSITFIKQIAGYVSQPMVDVSILQRSLAILESMVLNSQSLYQKIAEEITVGQLISHLQVSNQEIQTYAIALINALFLKAPEDKRQDMANAFAQKHLRSIILNHVIRGNRPIKTEMAHQLYVLQVLTFNLLEERMMTKMDPNDQAQRDIIFELRRIAFDAESDPSNAPGSGTEKRKAMYTKDYKMLGFTNHINPAMDFTQTPPGMLALDNMLYLAKVHQDTYIRIVLENSSREDKHECPFGRSAIELTKMLCEILQVGELPNEGRNDYHPMFFTHDRAFEELFGICIQLLNKTWKEMRATAEDFNKVMQVVREQITRALPSKPNSLDQFKSKLRSLSYSEILRLRQSERMSQDDFQSPPIVELREKIQPEILELIKQQRLNRLCEGSSFRKIGNRRRQERFWYCRLALNHKVLHYGDLDDNPQGEVTFESLQEKIPVADIKAIVTGKDCPHMKEKSALKQNKEVLELAFSILYDPDETLNFIAPNKYEYCIWIDGLSALLGKDMSSELTKSDLDTLLSMEMKLRLLDLENIQIPEAPPPIPKEPSSYDFVYHYG
With B1, the binding result with Gαi2-Flag is listed as “binds”.
